For part of these data: Where cells or extracts were used, other partners may take part. For part of these data: Negatives hold for the conditions tested. For part of these data: For at least one entry, the source does not settle the construct or the ends of the probe.
Key:
[1] = target: Ret receptor tyrosine kinase C634Y (RetC634Y) on PC12 MEN 2A cells (Homo sapiens) (UniProt P07949); experiment: binding assay; conditions: 2'-F pyrimidines (all C and U), protein on the cell surface
[2] = target: Ret receptor tyrosine kinase M918T (RetM918T) on PC12 MEN 2B cells (Homo sapiens) (UniProt P07949); experiment: binding assay; conditions: 2'-F pyrimidines (all C and U); D4 binds PC12 MEN 2B cells; protein on the cell surface; protein details: stably transfected in rat PC12 cells, monomeric; label: 5'-32P in binding assays
[3] = target: TrkA receptor tyrosine kinase on PC12/wt cells (UniProt P35739); experiment: activity in cells; conditions: 2'-F pyrimidines (all C and U); 200 nM D4; NGF-induced Erk phosphorylation unchanged; protein on the cell surface
[4] = target: Ret receptor tyrosine kinase wild-type on PC12/wt cells (Homo sapiens) (UniProt P07949); experiment: activity in cells; conditions: 2'-F pyrimidines (all C and U); 200 nM D4 inhibits GDNF/GFRa1-induced Ret and Erk phosphorylation; protein on the cell surface; protein details: stably transfected in rat PC12 cells
[5] = 100 nM on PC12 MEN 2A cells, label: 5'-32P

Amino acid sequences for entries named in this document (tags omitted). Residues count along the entry.
UniProt P07949, 29-1114 C634Y: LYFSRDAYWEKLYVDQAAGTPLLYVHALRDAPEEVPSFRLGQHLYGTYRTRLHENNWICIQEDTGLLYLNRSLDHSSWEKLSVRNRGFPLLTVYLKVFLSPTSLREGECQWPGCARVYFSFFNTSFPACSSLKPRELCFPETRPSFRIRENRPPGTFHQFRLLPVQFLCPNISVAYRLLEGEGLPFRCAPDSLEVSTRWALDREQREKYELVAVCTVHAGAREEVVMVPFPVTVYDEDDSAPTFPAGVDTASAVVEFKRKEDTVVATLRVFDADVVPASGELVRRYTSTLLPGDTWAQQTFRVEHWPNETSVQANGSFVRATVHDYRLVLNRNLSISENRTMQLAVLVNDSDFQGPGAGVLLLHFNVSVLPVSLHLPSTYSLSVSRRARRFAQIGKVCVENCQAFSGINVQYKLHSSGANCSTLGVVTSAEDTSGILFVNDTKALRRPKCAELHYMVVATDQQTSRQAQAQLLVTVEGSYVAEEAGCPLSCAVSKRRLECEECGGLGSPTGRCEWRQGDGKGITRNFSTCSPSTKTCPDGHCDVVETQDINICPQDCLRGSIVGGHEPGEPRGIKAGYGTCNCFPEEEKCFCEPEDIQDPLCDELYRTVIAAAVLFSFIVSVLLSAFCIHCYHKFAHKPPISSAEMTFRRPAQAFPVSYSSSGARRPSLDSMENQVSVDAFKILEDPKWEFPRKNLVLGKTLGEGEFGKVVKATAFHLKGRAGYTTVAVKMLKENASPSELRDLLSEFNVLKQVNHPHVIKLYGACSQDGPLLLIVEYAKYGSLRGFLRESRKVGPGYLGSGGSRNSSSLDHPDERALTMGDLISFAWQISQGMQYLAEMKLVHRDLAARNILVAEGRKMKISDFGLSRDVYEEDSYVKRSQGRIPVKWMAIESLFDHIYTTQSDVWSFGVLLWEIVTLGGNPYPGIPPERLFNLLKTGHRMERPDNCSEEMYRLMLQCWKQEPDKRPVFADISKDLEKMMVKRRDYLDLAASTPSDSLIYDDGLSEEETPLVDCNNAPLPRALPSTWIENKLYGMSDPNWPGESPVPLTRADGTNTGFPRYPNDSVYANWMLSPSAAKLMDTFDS
UniProt P07949, 29-1114 M918T: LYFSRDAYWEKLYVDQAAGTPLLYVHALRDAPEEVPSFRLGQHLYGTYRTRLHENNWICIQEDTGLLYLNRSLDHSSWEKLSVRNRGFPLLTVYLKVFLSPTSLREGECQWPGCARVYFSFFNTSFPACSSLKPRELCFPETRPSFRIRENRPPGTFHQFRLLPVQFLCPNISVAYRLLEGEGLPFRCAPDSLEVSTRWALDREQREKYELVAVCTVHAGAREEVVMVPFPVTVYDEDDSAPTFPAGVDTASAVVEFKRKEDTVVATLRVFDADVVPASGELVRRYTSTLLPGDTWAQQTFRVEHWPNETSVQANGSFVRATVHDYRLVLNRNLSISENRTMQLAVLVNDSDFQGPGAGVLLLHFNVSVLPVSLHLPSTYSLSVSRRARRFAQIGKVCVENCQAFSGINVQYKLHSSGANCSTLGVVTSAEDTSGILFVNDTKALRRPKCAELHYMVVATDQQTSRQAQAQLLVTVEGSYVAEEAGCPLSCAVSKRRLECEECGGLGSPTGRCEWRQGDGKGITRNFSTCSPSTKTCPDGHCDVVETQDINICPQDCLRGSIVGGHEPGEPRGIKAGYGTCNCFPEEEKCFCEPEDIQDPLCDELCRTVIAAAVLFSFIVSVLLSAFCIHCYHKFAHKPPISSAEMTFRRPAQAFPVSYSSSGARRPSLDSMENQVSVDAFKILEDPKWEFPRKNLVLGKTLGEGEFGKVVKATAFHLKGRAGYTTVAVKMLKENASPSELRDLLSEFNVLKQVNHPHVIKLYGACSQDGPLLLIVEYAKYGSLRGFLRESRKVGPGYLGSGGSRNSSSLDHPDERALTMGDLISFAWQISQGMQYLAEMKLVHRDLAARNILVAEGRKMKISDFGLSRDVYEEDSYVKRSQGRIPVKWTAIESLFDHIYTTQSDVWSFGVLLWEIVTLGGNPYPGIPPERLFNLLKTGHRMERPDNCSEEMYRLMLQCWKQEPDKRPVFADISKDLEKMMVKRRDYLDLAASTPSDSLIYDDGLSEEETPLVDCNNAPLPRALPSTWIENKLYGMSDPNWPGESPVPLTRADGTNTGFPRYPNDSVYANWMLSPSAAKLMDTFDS
UniProt P07949, 29-1114: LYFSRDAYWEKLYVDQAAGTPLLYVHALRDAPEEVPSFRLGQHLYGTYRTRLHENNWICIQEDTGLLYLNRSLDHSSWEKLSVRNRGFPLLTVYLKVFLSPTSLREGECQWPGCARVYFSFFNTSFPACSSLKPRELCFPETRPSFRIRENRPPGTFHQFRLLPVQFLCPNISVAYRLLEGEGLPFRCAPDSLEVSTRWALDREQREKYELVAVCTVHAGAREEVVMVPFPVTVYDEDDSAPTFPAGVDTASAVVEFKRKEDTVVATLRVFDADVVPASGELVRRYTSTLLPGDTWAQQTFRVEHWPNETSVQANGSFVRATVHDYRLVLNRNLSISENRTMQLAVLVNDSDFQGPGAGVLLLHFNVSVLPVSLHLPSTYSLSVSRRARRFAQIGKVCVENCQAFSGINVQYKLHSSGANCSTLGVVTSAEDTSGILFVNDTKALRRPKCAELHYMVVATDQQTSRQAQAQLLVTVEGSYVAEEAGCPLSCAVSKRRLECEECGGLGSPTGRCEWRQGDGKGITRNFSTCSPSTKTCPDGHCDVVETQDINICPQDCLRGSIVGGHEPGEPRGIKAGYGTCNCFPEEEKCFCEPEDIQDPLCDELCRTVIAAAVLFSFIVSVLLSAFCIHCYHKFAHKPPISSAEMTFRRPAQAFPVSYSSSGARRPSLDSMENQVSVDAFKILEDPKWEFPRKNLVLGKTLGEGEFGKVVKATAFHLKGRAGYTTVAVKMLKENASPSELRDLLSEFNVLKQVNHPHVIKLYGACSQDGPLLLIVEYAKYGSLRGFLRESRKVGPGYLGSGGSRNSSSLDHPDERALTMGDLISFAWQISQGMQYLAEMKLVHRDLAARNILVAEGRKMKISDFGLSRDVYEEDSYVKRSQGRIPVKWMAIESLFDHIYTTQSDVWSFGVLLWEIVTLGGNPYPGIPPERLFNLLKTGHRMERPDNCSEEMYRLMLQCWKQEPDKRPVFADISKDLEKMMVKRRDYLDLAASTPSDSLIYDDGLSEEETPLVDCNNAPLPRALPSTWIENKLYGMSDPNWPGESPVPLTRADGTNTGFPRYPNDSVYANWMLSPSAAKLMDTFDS
UniProt P35739, 33-799: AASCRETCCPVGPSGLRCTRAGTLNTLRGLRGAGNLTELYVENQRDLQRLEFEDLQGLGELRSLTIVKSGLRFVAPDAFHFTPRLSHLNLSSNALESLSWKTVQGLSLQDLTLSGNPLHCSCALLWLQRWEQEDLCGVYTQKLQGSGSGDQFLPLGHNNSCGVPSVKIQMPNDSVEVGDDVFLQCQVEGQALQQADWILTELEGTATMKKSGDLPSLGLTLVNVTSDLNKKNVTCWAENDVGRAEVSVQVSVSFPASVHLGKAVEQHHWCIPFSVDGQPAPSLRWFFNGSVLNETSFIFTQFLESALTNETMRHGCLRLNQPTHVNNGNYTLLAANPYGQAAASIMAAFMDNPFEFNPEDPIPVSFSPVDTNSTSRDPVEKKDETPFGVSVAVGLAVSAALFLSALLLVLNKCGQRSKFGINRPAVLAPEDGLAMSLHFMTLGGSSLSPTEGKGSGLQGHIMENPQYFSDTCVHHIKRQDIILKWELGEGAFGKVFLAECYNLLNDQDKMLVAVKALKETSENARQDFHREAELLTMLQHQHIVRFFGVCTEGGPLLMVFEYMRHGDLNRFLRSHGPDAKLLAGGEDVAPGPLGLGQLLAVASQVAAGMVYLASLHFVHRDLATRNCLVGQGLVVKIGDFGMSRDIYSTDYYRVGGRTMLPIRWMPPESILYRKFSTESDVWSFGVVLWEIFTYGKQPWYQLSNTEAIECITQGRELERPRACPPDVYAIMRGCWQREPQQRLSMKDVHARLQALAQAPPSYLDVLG

| Sequence | binding result [1, 5] | further results |
| --- | --- | --- |
| GGGAGACAAGAAUAAACGCUCAAGGCCAUAGCGCACCACCAAGAGCAAAUCCCUAAGCGCGACUCGAGUGAGCAACGACAGGAGGCUCACAACAGGA [D14] |  | binding result ([1]; 100 nM on PC12 MEN 2A cells, not significantly above background, label: 5'-32P): no binding |
| GGGAGACAAGAAUAAACGCUCAACCCCGCUUUUUGACGUGAUCGAACGCGUAUCAGUAACGUCAGCAGUCGAGCAACGACAGGAGGCUCACAACAGGA [D32] | no binding |  |
| GGGAGACAAGAAUAAACGCUCAAGGGCCAAUCGAAGCCGGUAAUUCCCAAACUAACGUGCAAACUGCACCCGCAACGACAGGAGGCUCACAACAGGA [D20] | no binding |  |
| GGGAGACAAGAAUAAACGCUCAAGGCUUACACGGAGAAACAAGAGAGCGGCCCAAACUUGAUUGACAGUGGCCAACGACAGGAGGCUCACAACAGGA [D76] | no binding |  |
| GGGAGACAAGAAUAAACGCUCAACAAAGCGUGUAUUCUCGUGAGCCGACCAUCGUUGCGAACAUCCCCGGAACGAACGACAGGAGGCUCACAACAGGA [D33] | no binding |  |
| GGGAGACAAGAAUAAACGCUCAACCGCGGUCUGUGGGACCCUUCAGGAUGAAGCGGCAACCCAUGCGGGCCAACGACAGGAGGCUCACAACAGGA [D87] | no binding |  |
| GGGAGACAAGAAUAAACGCUCAAGACCCGUAUGAAGGUGGCGCAGGACACGACCGUCUGCAAUGAGCGAGCAACGACAGGAGGCUCACAACAGGA [D42] | no binding |  |
| CGCGGGAAUAGUAUGGAAGGAUACGUAUACCGUG [D4 lacking R4 and R5 tails] |  | binding result ([1]; PC12 MEN 2A cells, no significant difference in binding vs D4, less active in inhibition than full D4, variant of D4): binds |
| GGGAGACAAGAAUAAACGCUCAAGCGCGGGAAUAGUAUGGAAGGAUACGUAUACCGUGCAAUCCAGGGCAACGAACGACAGGAGGCUCACAACAGGA [D4] |  | binding result [2]: binds; functional effect of the aptamer [3]: not active; functional effect of the aptamer [4]: active |
| GGGAGACAAGAAUAAACGCUCAACCGACCUGUACAGCAGUUAGUUACACGUUUGAAACAACCGGCGUUCGAGCAACGACAGGAGGCUCACAACAGGA [D60] | no binding |  |

Reference: patent publication US20080227735
